# Among all 320,000 compounds or so, about 22,000 (6.9%) were called active. The shares of active, inactive and inconclusive entries below differ from those in the screen. Calls follow the shape of the dose curve; as a rule, active = well fitted inhibition curve with a large enough effect; inconclusive = small, poorly fitted or top-dose-only effect, or another doubt; inactive = no such curve, though single readings can be large or run the other way. Potencies of inconclusive entries are doubtful fits and often do not repeat.
# Assay: Primary qHTS for delayed death inhibitors of the malarial parasite plastid, 96 hour incubation
# Conditions: P. falciparum luciferase reporter growth; series mostly up to 28.7 µM
# How it was run: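 Erythrocytes infected with luciferase-expressing P. falciparum were dispensed at 2% hematocrit and 0.05% parasitemia (final), then incubated with compounds 96 hours at 37 C in 5% CO2. Luminescence after detection reagent addition reported growth.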
# % is scaled to controls: 0 for no effect and ±100 for the full control effect; potency is read from the fitted curve at half-maximal effect.
Structure (SMILES),Potency,"activity change, negative = inhibition"
O=C(NCC(=O)N1CCCCCCC1)c1ccccc1Br,inactive,–
COc1ccc(C(CNC(=O)c2oc3ccc(F)cc3c2C)N2CCCCC2)cc1 (stereo unspecified),inactive,–
CC1CCCCN1C(=O)C1COc2ccccc2O1 (stereo unspecified),inactive,–
O=C1C2C3C=CC(C3)C2C(=O)N1c1ccc2c(c1)OCO2 (stereo unspecified),inactive,–
CC(Oc1ccc(C(C)(C)C)cc1)c1ccnc2nc(/N=C/N(C)C)nn12 (stereo unspecified),"inconclusive: 1.17 µM [inhibitor, full curve]",–
CC1=CC(C)(C)Nc2ccc(OC(=O)C(C)N3C(=O)c4ccccc4C3=O)cc21 (stereo unspecified),"inconclusive: 14.7 µM [inhibitor, partial curve]",–
CCOC(=O)N1CCN(c2c(N3CC=C(c4ccccc4)CC3)c(=O)c2=O)CC1,"inconclusive: 10.4 µM [inhibitor, single point]",–
CCOc1ccc(NC(=S)NN(C)C(=S)Nc2ccc(OCC)cc2)cc1,inactive,–
CC(=O)OCCCN1C(=O)c2ccc(Br)cc2C1=O,inactive,–
O=C(Cn1nnc2ccccc2c1=O)NCc1ccc(Cl)cc1,inactive,–
Cn1c2ccccc2c(=O)c2cc(C#Cc3ccccn3)ccc21,"inconclusive: 16.5 µM [inhibitor, single point]",–
Cc1[nH]c(=O)c(C(=O)c2cc(Cl)ccc2O)cc1C(=O)O,–,inactive: 32.3% [at 5.75 µM]
N#Cc1c(NCCN)nc(-c2ccccc2)c2c1CCCC2,"inconclusive: 18.5 µM [inhibitor, partial curve, poor fit]",–
O=C(CN1CCN(C(=O)c2ccccc2)CC1)Nc1cc(S(=O)(=O)N2CCCC2)ccc1Cl,"inconclusive: 0.415 µM [inhibitor, full curve, poor fit]",–
Cc1cccc(-n2ccnc2CN2CCN(C3CCCC3)C(CCO)C2)c1 (stereo unspecified),active: 6.57 µM,–
COc1cccc(Cn2nc3c4cc(F)ccc4n(Cc4ccc(F)cc4)cc-3c2=O)c1,active: 1.65 µM,–
CC(C)(C)c1ccc(CCC2OCC(CN3CCOCC3)O2)cc1 (stereo unspecified),"inconclusive: 18.5 µM [inhibitor, single point]",–
Cc1ccc(NC(=S)NNC(=O)c2nn(C)cc2Cl)cc1,inactive,–
Cc1cccc(C)c1NC(=S)N(c1ccccc1)C(C)C,inactive,–
CCCOc1ccc(C(=O)NCC(c2ccco2)N(C)C)cc1OC (stereo unspecified),"inconclusive: 10.4 µM [inhibitor, single point]",–
Cc1ccc(CNC(=O)C2CCC(=O)N(CCc3cccc(F)c3)C2)s1 (stereo unspecified),inactive,–
O=C(O)Cc1nc(-c2cccnc2)sc1-c1ccc(Br)cc1,"inconclusive: 5.22 µM [inhibitor, partial curve, poor fit]",–
O=C(NC1CCSc2ccccc21)c1cccc(OC(F)F)c1 (stereo unspecified),"inconclusive: 18.5 µM [inhibitor, single point]",–

# In the list so far, 4 have fluorine:
Structure (SMILES),Potency,"activity change, negative = inhibition"
COc1ccc(C(CNC(=O)c2oc3ccc(F)cc3c2C)N2CCCCC2)cc1 (stereo unspecified),inactive,–
COc1cccc(Cn2nc3c4cc(F)ccc4n(Cc4ccc(F)cc4)cc-3c2=O)c1,active: 1.65 µM,–
Cc1ccc(CNC(=O)C2CCC(=O)N(CCc3cccc(F)c3)C2)s1 (stereo unspecified),inactive,–
O=C(NC1CCSc2ccccc21)c1cccc(OC(F)F)c1 (stereo unspecified),"inconclusive: 18.5 µM [inhibitor, single point]",–

# Further results.

Structure (SMILES),Potency,"activity change, negative = inhibition"
COc1ccccc1-c1noc(Cn2cc(S(=O)(=O)N3CCCC3)ccc2=O)n1,"inconclusive: 10.4 µM [inhibitor, partial curve, poor fit]",–
CCOC(=O)N1CCN(Cc2nc(N)nc(Nc3ccc(Cl)cc3)n2)CC1,"inconclusive: 0.0415 µM [inhibitor, full curve, poor fit]",–
Cc1noc(C)c1S(=O)(=O)N1CCC(C(=O)N2CCN(C(=O)c3ccco3)CC2)CC1,"inconclusive: 11.7 µM [inhibitor, single point]",–
Cc1ccc(-c2cc(C(=O)N/N=C/c3cccnc3)n[nH]2)o1,"inconclusive: 10.4 µM [inhibitor, single point]",–
CC(C)C[C@@H](COc1ccccc1)N1CCN(CCc2ccccc2)CCC1=O,"inconclusive: 2.62 µM [inhibitor, full curve, poor fit]",–
CCOC(=O)N1CCN(C(=O)c2csc3c2CCCCC3)CC1,"inconclusive: 9.28 µM [inhibitor, partial curve]",–
Cc1ccccc1CN1CCC(Oc2ccc(C(=O)NCc3ccccn3)cc2)CC1,"inconclusive: 13.1 µM [inhibitor, single point]",–
COc1cccc(N2CC(C(=O)Nc3nnc(SCc4cccnc4)s3)CC2=O)c1 (stereo unspecified),"inconclusive: 11.7 µM [inhibitor, single point]",–
CCCCn1c(N)c(N(CC(C)C)C(=O)CN2C(=O)NC3(CC(C)CC(C)(C)C3)C2=O)c(=O)[nH]c1=O (stereo unspecified),"inconclusive: 13.1 µM [inhibitor, single point]",–
COCCNS(=O)(=O)c1ccc(Cl)c(C(=O)NC2CCN(Cc3ccccc3)CC2)c1,inactive,–
C=CCOc1ccc(CNc2ccc(NC(=O)CCC)cc2)cc1OCC,active: 11.7 µM,–
CC(=O)Nc1ccccc1-c1nc2ccc(C(=O)N3CCN(c4ccccc4)CC3)cc2[nH]c1=O,"inconclusive: 18.5 µM [inhibitor, single point]",–
COc1ccc(CCNC(=O)c2ccc(CS(=O)(=O)c3ccc(Cl)cc3)o2)cc1OC,active: 10.4 µM,–
Cc1cc(NC(=O)C2CCCN(S(=O)(=O)c3c(C)noc3C)C2)n[nH]1 (stereo unspecified),"inconclusive: 18.5 µM [inhibitor, single point]",–
COc1cc(O)c2c(=O)cc(-c3ccccc3)oc2c1,inactive,–
O=C(O)c1ccc2c3c(cccc13)C(=O)N(c1ccccc1)C2=O,"inconclusive: 9.28 µM [inhibitor, partial curve, poor fit]",–
CCc1ccc(-c2nc(CS(=O)CC(=O)O)c(C)o2)cc1 (stereo unspecified),inactive,–
CC[C@@H](C)[C@@H](C(=O)N1CCN(C(=O)OC(C)(C)C)CC1)n1cc(CCCCNC(=O)OC(C)(C)C)nn1,"inconclusive: 10.4 µM [inhibitor, partial curve, poor fit]",–
Cc1ccc(C23CC4CC(CC(C(=O)NC(C(=O)O)C(C)C)(C4)C2)C3)cc1 (stereo unspecified),inactive,–
COc1cccc(NC(=O)CN(C)C(=O)c2ccc3c(c2)S(=O)(=O)N=C2CCCCCN23)c1,inactive,–
COc1ccc([C@H]2CC(=O)C=C(c3ccccc3-c3ccccc3)C2)cc1,active: 13.1 µM,–
COc1ccc(OCc2nnc(SCC(=O)Nc3nnc(C4CC4)s3)n2C)cc1,inactive,–
O=C(Oc1ccc(F)cc1C(=O)/C=C/c1cccs1)c1cccc([N+](=O)[O-])c1,"inconclusive: 3.7 µM [inhibitor, single point]",–

# From PubChem BioAssay AID504834 (National Center for Advancing Translational Sciences (NCATS), 2011)
